Results are given in words; binding and its absence hold for the method and conditions named. Some binding calls cover weakened binding; strength is not graded here. For some assays here: Tags and fused reporters may be left off the sequences shown.
Tests used:
[1] = target: T1, cyno extracellular domain (ECD) of CD3 (cynomolgus monkey) (UniProt Q95LI5); assay: BIAcore SPR
T1 sequence (looked up): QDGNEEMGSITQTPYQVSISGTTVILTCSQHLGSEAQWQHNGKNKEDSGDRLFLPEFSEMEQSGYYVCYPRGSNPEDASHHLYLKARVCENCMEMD

Chains of the proteins cited; added tags and fusions are not shown. Residues count along the entry.
UniProt P07766, residues 23-126: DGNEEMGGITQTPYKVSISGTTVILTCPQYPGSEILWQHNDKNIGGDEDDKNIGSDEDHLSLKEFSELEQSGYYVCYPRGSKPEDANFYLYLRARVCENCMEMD

human LY6G6D-Fc (human) [2] = target: T2, human LY6G6D-Fc (human) (UniProt O95868); assay: BIAcore SPR
T2 sequence: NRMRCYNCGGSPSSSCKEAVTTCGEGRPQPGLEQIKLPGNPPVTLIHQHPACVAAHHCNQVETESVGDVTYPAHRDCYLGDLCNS

[3] = target: human extracellular domain (ECD) of CD3 (human) (UniProt P07766); assay: BIAcore SPR
human LY6G6D-Fc (human) [4] = target: T2, human LY6G6D-Fc (human); assay: BIAcore SPR; as a TDB at 37 C
human LY6G6D-Fc (human) [5] = target: T2, human LY6G6D-Fc (human); assay: BIAcore SPR; LY6G6D-Fc on chip; TDB flowed; 37 C

Measured: binding

B1: LY6G6D TDB comprising the anti-LY6G6D 20A12.QNTv12 arm (two-cell) and the anti-CD3 38E4v1 arm (bispecific antibody, V domains shown)
VH 1: EVQLLESGGGLVQPGGSLRLSCAASGFDFVNNAMIWVRQAPGKGLEWVSALSFADNTAYYATWASGRFTISRDSSKTTVYLQMNSLRAEDTAVYYCMRGDLWGPGTLVTVSS
VL 1: DIQMTQSPSTLSASVGDRVTITCQASESITRYLNWYQQKPGKAPKLLIYDASKLPSGVPSRFSGSGSGTEFTLTISSLQPDDFATYYCQSTSFRGRSYQNTFGGGTKVEIK
VH 2: EVQLVQSGAEVKKPGASVKVSCKASGFTFTSYYIHWVRQAPGQGLEWIGWIYPENDNTKYNEKFKDRVTITADTSTSTAYLELSSLRSEDTAVYYCARDGYSRYYFDYWGQGTLVTVSS
VL 2: DIVMTQSPDSLAVSLGERATINCKSSQSLLNSRTRKNYLAWYQQKPGQSPKLLIYWTSTRKSGVPDRFSGSGSGTDFTLTISSLQAEDVAVYYCKQSFILRTFGQGTKVEIK
binds: [1] | human LY6G6D-Fc (human) [2] | [3] | human LY6G6D-Fc (human) [4] | human LY6G6D-Fc (human) [5]
